Experimental findings from US20250002581A1 are described below.

Results are given in words; binding and its absence hold for the method and conditions named. Binding calls can cover weak binding; strength is not graded here.

The target in test [1] is Δ42PD1 (human). The test is described as follows: flow cytometry on 293T-Δ42PD1 cells. (In flow cytometry, cells or beads pass a laser one at a time.)
Test [2] concerns the target Δ42PD-1-GFP. Kind of test: flow cytometry on transfected RPMI8866 B cells.
The target of test [3] is Δ42PD1 (human). Kind of test: flow cytometry on 293T cells transfected with a PCDH plasmid expressing Δ42PD-1.
The target in test [4] is Δ42PD-1-GFP. Kind of test: flow cytometry on RPMI8866 B cells transfected with Δ42PD-1-GFP.
The target in test [5] is Δ42PD1 (human). Kind of test: flow cytometry on transfected 293T cells.

B1: CH101-huIgG1(L/S) (antibody, not shown: a dimerising Fc or GST)
heavy: EVQLEESGPDLVKPSQSLSLTCTVTGYSITSGFAWHWLRQFPGNRLEWMGYIHYSGSTNYNPSLKSRISITRDTSKNQFFLQLNSVTTEDTATFYCARSDFWGQGTFVTVSS
light: DVVMTQTPLNLSVTFGQPVSISCTSSQSLLDRDGETFMNWLFQRPGQSPKRLIYLVSKLDFGVPDRFTGSGSGTDFTLKISRVEAEDLGIYYCWQGTHFPLTFGGGTKLEIKRTVAAPSVFIFPPSDEQLKSGTASVVCLLNNFYPREAKVQWKVDNALQSGNSQESVTEQDSKDSTYSLSSTLTLSKADYEKHKVYACEVTHQGLSSPVTKSFNRGEC
As for B1, the binding result with Δ42PD1 (human) [1] was “binds”.

B2: murine CH101 (antibody, V domains shown)
VH: B1 heavy
VL: DVVMTQTPLNLSVTFGQPVSISCTSSQSLLDRDGETFMNWLFQRPGQSPKRLIYLVSKLDFGVPDRFTGSGSGTDFTLKISRVEAEDLGIYYCWQGTHFPLTFGGGTKLEIK
On to B2, for which the binding entry with Δ42PD1 (human) [1] is given as “binds”.

B3: anti-Δ42PD1 antibody CH34 (antibody, mouse IgG2b, kappa, V domains shown)
VH: EVKLVESGGGLVQPGGSRKLSCAASGFTFSDYGMAWVRQAPGKGPEWVAFISSLAYTIYYADTVTGRFTISRENAKNTLYLEMSSLRSEDTAMYYCARGGAGFAYWGQGTLVTVSA
VL: DIQMTQSSSYLSVSLGGRVTITCKASDHINNWLAWYQQKPGNAPRLLISGATSLETGVPSRFSGSGSGKDYTLSITSLQTEDVATYYCQQYWSTPWTFGGGTKLEIKR
In the case of B3, the binding result with Δ42PD-1-GFP [2], with Δ42PD1 (human) [3], in the test with Δ42PD-1-GFP [4] and with Δ42PD1 (human) [5] was “binds” throughout.
